# Experimental data published in article PMC11923996.
# Sequences of proteins named here, by UniProt entry; tags and fusion partners are left off. Residues count along the entry.
# UniProt O60260: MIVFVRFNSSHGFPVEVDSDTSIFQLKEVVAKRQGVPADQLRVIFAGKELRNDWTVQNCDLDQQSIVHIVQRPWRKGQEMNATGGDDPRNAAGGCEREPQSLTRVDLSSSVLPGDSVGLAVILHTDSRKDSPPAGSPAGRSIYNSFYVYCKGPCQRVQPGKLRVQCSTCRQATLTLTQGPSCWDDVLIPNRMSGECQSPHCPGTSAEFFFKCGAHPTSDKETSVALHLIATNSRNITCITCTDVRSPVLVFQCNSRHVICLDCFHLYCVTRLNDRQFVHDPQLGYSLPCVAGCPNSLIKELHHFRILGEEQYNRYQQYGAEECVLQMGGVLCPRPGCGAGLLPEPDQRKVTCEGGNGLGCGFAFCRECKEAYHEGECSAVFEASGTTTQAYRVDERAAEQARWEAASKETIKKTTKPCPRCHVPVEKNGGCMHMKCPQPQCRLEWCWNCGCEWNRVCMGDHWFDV
# UniProt Q9NWU1, residues 28-459: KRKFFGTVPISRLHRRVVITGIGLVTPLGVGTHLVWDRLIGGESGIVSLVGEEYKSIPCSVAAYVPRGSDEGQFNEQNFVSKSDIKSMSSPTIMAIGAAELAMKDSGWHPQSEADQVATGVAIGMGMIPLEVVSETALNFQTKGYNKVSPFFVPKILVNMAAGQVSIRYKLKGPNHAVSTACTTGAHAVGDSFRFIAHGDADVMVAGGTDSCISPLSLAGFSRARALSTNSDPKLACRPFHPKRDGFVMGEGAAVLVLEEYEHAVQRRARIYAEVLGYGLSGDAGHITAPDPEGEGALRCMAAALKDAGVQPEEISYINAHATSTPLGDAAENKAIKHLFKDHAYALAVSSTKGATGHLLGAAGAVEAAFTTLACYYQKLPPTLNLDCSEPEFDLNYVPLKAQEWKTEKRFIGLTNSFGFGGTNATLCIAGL
# These are yes or no findings as the source states them, for the method shown. In cells and extracts the contact can be indirect. Some entries that bind do so weakly or less than the wild type. For some of these results: Tags and fused reporters may be left off the sequences shown.
# T1: GST-fused PCK2 (human) (UniProt Q16822)
# T1 sequence: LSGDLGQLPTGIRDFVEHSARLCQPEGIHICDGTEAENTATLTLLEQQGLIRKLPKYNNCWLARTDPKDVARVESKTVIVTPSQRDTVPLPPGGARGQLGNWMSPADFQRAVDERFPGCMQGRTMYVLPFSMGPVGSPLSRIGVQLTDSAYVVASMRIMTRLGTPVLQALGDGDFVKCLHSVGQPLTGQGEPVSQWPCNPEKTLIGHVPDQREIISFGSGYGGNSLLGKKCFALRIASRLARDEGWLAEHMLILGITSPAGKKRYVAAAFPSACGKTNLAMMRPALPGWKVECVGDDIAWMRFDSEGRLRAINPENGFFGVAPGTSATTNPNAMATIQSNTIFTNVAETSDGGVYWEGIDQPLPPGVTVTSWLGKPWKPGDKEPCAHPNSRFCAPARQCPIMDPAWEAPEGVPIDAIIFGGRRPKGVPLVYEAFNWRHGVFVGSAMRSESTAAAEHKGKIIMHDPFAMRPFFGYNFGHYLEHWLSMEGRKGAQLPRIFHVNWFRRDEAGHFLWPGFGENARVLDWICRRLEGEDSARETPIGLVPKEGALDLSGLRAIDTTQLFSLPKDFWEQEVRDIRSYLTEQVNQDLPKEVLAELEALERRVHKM
# T2: Flag-PCK2 (human wild-type PCK2 in the GV141-Flag vector) (human) (UniProt Q16822)
# T2 sequence: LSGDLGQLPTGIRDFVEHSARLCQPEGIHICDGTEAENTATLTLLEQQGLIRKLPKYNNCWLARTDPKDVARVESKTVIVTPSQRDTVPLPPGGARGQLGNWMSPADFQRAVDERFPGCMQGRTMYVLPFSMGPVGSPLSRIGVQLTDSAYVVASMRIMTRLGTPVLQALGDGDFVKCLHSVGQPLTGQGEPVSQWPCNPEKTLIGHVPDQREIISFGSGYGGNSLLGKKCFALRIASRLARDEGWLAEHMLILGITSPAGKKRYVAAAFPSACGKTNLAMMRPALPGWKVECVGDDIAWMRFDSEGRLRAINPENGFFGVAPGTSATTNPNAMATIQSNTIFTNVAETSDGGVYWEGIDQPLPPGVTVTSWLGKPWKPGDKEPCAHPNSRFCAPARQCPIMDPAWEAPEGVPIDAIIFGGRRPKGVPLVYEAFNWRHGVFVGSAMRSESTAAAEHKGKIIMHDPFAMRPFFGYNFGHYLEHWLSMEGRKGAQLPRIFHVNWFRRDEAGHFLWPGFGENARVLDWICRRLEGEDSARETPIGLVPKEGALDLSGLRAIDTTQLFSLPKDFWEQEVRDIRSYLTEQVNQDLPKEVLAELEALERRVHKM
# T3: mitochondrial phosphoenolpyruvate carboxykinase 2 (PCK2), endogenous in THLE2 cells (human (endogenous in THLE2)) (UniProt Q16822)
# T3 sequence: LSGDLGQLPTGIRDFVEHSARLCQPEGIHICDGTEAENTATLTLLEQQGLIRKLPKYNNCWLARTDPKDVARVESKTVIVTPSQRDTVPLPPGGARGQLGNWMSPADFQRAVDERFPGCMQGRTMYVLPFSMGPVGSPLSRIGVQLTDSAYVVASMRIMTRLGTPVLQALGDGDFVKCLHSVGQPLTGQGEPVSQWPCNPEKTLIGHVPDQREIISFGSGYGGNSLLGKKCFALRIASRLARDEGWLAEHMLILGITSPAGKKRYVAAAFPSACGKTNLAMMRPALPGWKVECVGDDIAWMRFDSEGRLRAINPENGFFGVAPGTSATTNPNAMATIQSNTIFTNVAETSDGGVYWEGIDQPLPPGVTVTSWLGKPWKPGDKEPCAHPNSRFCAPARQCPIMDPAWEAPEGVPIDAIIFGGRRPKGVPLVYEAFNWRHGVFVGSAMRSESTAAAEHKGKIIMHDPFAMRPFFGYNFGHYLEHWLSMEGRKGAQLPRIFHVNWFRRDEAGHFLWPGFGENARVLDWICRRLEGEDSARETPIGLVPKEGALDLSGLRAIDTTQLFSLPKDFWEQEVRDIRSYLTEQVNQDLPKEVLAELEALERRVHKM
# T4: mitochondrial phosphoenolpyruvate carboxykinase 2 (PCK2), endogenous in mouse primary hepatocytes (mouse (endogenous in MPHs)) (UniProt Q8BH04)
# T4 sequence: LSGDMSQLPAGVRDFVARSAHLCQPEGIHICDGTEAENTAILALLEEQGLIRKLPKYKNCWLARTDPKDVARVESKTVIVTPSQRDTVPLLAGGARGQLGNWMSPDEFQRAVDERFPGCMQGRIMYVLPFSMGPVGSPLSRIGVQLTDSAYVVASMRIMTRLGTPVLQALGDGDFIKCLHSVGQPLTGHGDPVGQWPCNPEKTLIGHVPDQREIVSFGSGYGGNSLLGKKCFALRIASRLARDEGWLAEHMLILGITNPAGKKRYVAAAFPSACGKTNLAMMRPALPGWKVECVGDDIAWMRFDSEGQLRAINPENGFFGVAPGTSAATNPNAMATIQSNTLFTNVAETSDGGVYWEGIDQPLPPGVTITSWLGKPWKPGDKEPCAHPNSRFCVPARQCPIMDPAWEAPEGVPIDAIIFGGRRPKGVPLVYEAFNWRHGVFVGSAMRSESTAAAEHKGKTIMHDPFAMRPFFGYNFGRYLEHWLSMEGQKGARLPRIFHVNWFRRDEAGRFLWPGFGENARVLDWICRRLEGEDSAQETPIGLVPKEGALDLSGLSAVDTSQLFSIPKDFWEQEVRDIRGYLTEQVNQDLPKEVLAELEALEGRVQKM
# Tests used:
# GST-fused PCK2 (human) = biological target: T1, GST-fused PCK2 (human); assay: pull-down; GST-PCK2 or GST on glutathione-Sepharose beads incubated with total lysates of cells expressing MYC-OXSM (THLE2, 2 hours, by the legend; HEK293T extracts, overnight at 4 °C, by the methods); 25 mM Tris-HCl pH 7.2, 150 mM NaCl; Western blot with anti-MYC or anti-GST; only the target purified
# [1] = biological target: T2, Flag-PCK2 (human wild-type PCK2 in the GV141-Flag vector) (human); assay: co-IP; tagged proteins co-expressed in HEK293T cells; IP with anti-Flag or anti-MYC antibody, Western blot; IP lysis buffer 20 mM Tris-HCl pH 7.5, 0.5% NP-40, 250 mM NaCl
# [2] = biological target: Parkin (E3 ligase), endogenous in THLE2 cells (human (endogenous in THLE2)) (UniProt O60260); assay: co-IP; endogenous proteins in lysates of MPHs or THLE2 cells (with/without H/R, with/without lactate); IP with anti-PCK2 or anti-Parkin antibody, Western blot; IP lysis buffer 20 mM Tris-HCl pH 7.5, 0.5% NP-40, 250 mM NaCl; protein A/G-Sepharose, 4 °C
# [3] = biological target: T3, mitochondrial phosphoenolpyruvate carboxykinase 2 (PCK2), endogenous in THLE2 cells (human (endogenous in THLE2)); assay: as above
# [4] = biological target: Parkin (E3 ligase), endogenous in THLE2 cells (human (endogenous in THLE2)) (UniProt O60260); assay: co-IP; CoIP of Parkin and OXSM from THLE2 cells transfected with different concentrations of Flag-PCK2, Western blot
# [5] = biological target: 3-oxoacyl-ACP synthase (OXSM), endogenous in THLE2 cells (human (endogenous in THLE2)) (UniProt Q9NWU1); assay: as above
# [6] = biological target: T4, mitochondrial phosphoenolpyruvate carboxykinase 2 (PCK2), endogenous in mouse primary hepatocytes (mouse (endogenous in MPHs)); assay: co-IP; endogenous proteins in lysates of MPHs or THLE2 cells (with/without H/R, with/without lactate); IP with anti-PCK2 or anti-Parkin antibody, Western blot; IP lysis buffer 20 mM Tris-HCl pH 7.5, 0.5% NP-40, 250 mM NaCl; protein A/G-Sepharose, 4 °C
molecule,measurement,setting,value
MYC-OXSM (human wild-type OXSM in the GV141-Myc vector) (from UniProt Q9NWU1 28-459) (enzyme),binding,GST-fused PCK2 (human),binds
same,binding,[1],binds
"3-oxoacyl-ACP synthase (OXSM), endogenous in THLE2 cells (from UniProt Q9NWU1 28-459) (enzyme)",binding,[2],binds
same,binding,[3],binds
same,binding,[4],binds
"Flag-PCK2 (human wild-type PCK2 in the GV141-Flag vector) (enzyme, UniProt Q16822 33-640) LSGDLGQLPTGIRDFVEHSARLCQPEGIHICDGTEAENTATLTLLEQQGLIRKLPKYNNCWLARTDPKDVARVESKTVIVTPSQRDTVPLPPGGARGQLGNWMSPADFQRAVDERFPGCMQGRTMYVLPFSMGPVGSPLSRIGVQLTDSAYVVASMRIMTRLGTPVLQALGDGDFVKCLHSVGQPLTGQGEPVSQWPCNPEKTLIGHVPDQREIISFGSGYGGNSLLGKKCFALRIASRLARDEGWLAEHMLILGITSPAGKKRYVAAAFPSACGKTNLAMMRPALPGWKVECVGDDIAWMRFDSEGRLRAINPENGFFGVAPGTSATTNPNAMATIQSNTIFTNVAETSDGGVYWEGIDQPLPPGVTVTSWLGKPWKPGDKEPCAHPNSRFCAPARQCPIMDPAWEAPEGVPIDAIIFGGRRPKGVPLVYEAFNWRHGVFVGSAMRSESTAAAEHKGKIIMHDPFAMRPFFGYNFGHYLEHWLSMEGRKGAQLPRIFHVNWFRRDEAGHFLWPGFGENARVLDWICRRLEGEDSARETPIGLVPKEGALDLSGLRAIDTTQLFSLPKDFWEQEVRDIRSYLTEQVNQDLPKEVLAELEALERRVHKM",binding,[5],binds
"lysine acetyltransferase 8 (KAT8), endogenous in mouse primary hepatocytes (enzyme, UniProt Q9D1P2 1-458) MAAQGATAAVAATTSGTVGEGEPGPGENAAVEGPARSPGRVSPPTPARGEPEVTVEIGETYLCRRPDSTWHSAEVIQSRVNDQEGREEFYVHYVGFNRRLDEWVDKNRLALTKTVKDAVQKNSEKYLSELAEQPERKITRNQKRKHDEINHVQKTYAEMDPTTAALEKEHEAITKVKYVDKIHIGNYEIDAWYFSPFPEDYGKQPKLWLCEYCLKYMKFEKSYRFHLGQCQWRQPPGKEIYRKSNISVYEVDGKDHKIYCQNLCLLAKLFLDHKTLYFDVEPFVFYILTEVDRQGAHIVGYFSKEKESPDGNNVACILTLPPYQRRGYGKFLIAFSYELSKLESTVGSPEKPLSDLGKLSYRSYWSWVLLEILRDFRGTLSIKDLSQMTSITQNDIISTLQSLNMVKYWKGQHVICVTPKLVEEHLKSAQYKKPPITVDSVCLKWAPPKHKQVKLSKK",binding,[6],binds
